# From the supplement of paper PMC3334620
# The full ranking holds about 33,000 sequences; the median of “E-score (-0.5 to 0.5)” is about -0.0059, and the highest 2% start at about 0.26. Some of the results follow.
# Molecular target: T1, Cin5 (UniProt P40917)
# T1 sequence: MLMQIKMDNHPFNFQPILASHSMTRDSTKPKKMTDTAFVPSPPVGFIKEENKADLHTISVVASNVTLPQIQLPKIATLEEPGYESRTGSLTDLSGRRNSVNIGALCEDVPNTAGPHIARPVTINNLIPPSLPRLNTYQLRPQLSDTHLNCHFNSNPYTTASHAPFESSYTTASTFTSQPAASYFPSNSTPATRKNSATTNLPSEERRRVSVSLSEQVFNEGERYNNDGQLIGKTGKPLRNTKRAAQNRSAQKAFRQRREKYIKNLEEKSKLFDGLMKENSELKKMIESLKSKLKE
# Assay: PBM E-score (8-mer binding enrichment) (E-score (-0.5 to 0.5)); higher = stronger / more preferred TF binding
# Settings: protein concentration: 100 nM; construct: GST-full length
# Procedure: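 Universal 'all 10-mer' protein binding microarrays (Agilent AMADID 015681) probed with GST-tagged S. cerevisiae TFs (full-length or DBD) made by in vitro transcription/translation (PURExpress), about 100-200 nM. Bound TF was detected with fluorescent anti-GST. Each ungapped 8-mer (which stands for itself and its reverse complement) is scored by the PBM enrichment score (E-score), a modified Wilcoxon-Mann-Whitney statistic from -0.5 to +0.5, computed with the Universal PBM Analysis Suite. Scale: above 0.35 generally sequence-specific binding.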
row,Sequence,PBM E-score
1,ATAGACGG,0.0602
2,AGCGAGAG,0.0419
3,CTACATCA,0.156
4,GAAAGGAA,0.0394
5,AGGTGATG,0.0198
6,TAGTATCA,0.296
7,GCACTGTA,0.0748
8,ATTGGAAC,0.00929
9,AATGACCT,-0.106
10,CCATGGAA,0.0514
11,GTGTGGAA,0.0155
12,CTCTGTTA,-0.0159
13,AACAGCCA,0.0811
14,CTCTAATA,-0.057
15,ACCTCGTG,-0.0248
16,ACTTCGCC,0.0471
17,ATGTCGTC,-0.00466
18,GGGCCTAA,-0.267
19,CGAGTTCA,-0.0225
20,AAGGATAC,-0.0927
21,CCACGATA,0.125
22,CCTTTACA,-0.136
23,ACGACCGG,-0.159
24,AAACTGAA,0.0155
25,AAGGGTTC,-0.121

# Looked up above:
# In PBM E-score, GAAAGGAA is listed with 0.0394
# In PBM E-score, GGGCCTAA is listed with -0.267
# In PBM E-score, ATAGACGG is listed with 0.0602

# Further entries follow.

row,Sequence,PBM E-score
1,ACTTATTG,0.137
2,ATTATGTG,0.345
3,AGCCGCAT,0.0301
4,ACATACTA,0.155
5,CTCTAGAC,-0.268
6,ATGAAAAG,0.0788
7,AACGCTTC,-0.0204
8,AACCACCA,0.0848
9,CTAAAGAA,-0.0282
10,ACCGCGGG,0.105
11,CATCTCGG,0.0594
12,ATATGACG,0.0848
13,ACCACAGA,0.0397
14,AAATCGTC,0.0262
15,AGAGCCAG,-0.143
16,CACCATTA,0.0751
17,ACTGCTTA,0.209
18,ATTGCACC,0.108
19,CCTTGATA,0.0439
20,ATATTAAT,0.362
21,GGCGCTTA,0.0541
22,ATCTAGCA,0.105
23,ACGACAAC,0.166
24,ATGTGAAC,0.117
25,AGCGCTTA,0.157

# A second format for part of the listing above.
row	Sequence	PBM E-score
18	ATTGCACC	0.108
19	CCTTGATA	0.0439
20	ATATTAAT	0.362
21	GGCGCTTA	0.0541

# Next part.

row,Sequence,PBM E-score
1,TAAATTAA,0.122
2,AAAGTAGG,0.0693
3,AGAGGCTG,-0.342
4,ACATGTAA,0.168
5,GCCTTGGA,-0.109
6,AACTCTCT,0.0206
7,GTTGACTA,0.00144
8,ACTGCCCG,-0.0979
9,TAGGCCCA,-0.25
10,CTCAAACA,0.0626
11,ATATCTGC,0.0204
12,ACGTCCCT,-0.0882
13,ACGATAAA,-0.115
14,AACAGGTG,-0.0901
15,CCAAATCG,-0.0283
16,CCTCAGAC,-0.146
17,GGGGTACA,-0.125
18,ACAATACC,0.278
19,ATGTTGAG,-0.0071
20,AACTTTGG,-0.0672
21,ACCACATC,0.228
22,GCAATTCC,-0.043
23,AGCAGTAC,0.037
24,ACCACGTC,-0.0185
25,CTCTCGTA,0.0396

# Some of the entries above in another layout:
row | Sequence | PBM E-score
3 | AGAGGCTG | -0.342
10 | CTCAAACA | 0.0626
19 | ATGTTGAG | -0.0071
24 | ACCACGTC | -0.0185
25 | CTCTCGTA | 0.0396

# (further entries)

row,Sequence,PBM E-score
1,GCACCCCC,-0.343
2,ACCGTGAT,-0.098
3,ACCGGGTG,0.00507
4,ACCTGACG,-0.065
5,TGGTCACA,-0.0718
6,GGGGAACC,-0.229
7,AGCAACCT,-0.0721
8,CTGACCAA,0.12
9,CTGCCTCA,-0.137
10,GATTAGCA,0.191
11,TCGCAACA,0.108
12,ATTGACCA,0.133
13,CGCTAATA,0.0507
14,GTTAAACA,0.0897
15,AGCCCCGC,-0.0133
16,AAGTGGCA,0.0598
17,GATGCCCC,-0.246
18,AAACAAGT,0.108
19,CTGGGGCC,-0.254
20,GCAATGGA,0.062
21,ACTACCGG,-0.16
22,GACACTAC,0.0741
23,CTAGAATA,0.146
24,ATACTCGC,0.247
25,GATCACGA,0.137

row,Sequence,PBM E-score
1,CCCTACGG,-0.172
2,CGCGTAGC,-0.0721
3,GGCGTAGA,-0.0537
4,CGAGCTCG,0.0762
5,CTAACACC,-0.0334
6,AATTCGCA,0.198
7,GGGCTCAA,-0.26
8,CAGAGGTA,-0.00695
9,GGATCCAC,-0.0492
10,GATGCCGC,-0.151
11,GTCTTCAA,-0.0931
12,ACTAGCGA,-0.149
13,AAACGGCA,0.126
14,ATACATCA,0.212
15,CCGCGGAG,0.0845
16,CAGACATA,0.0163
17,CCTTCAGC,-0.133
18,AGTCTAGA,-0.219
19,TCCAAGGA,-0.133
20,GATCAGGC,-0.146
21,ATTGAGTG,0.0972
22,TACTCCAA,0.0407
23,AACGAAGG,-0.202
24,TCTTCGCA,0.121
25,CTTCAGTC,-0.0807

row,Sequence,PBM E-score
1,ACGTCAAC,0.0251
2,GATCGACA,-0.0332
3,CGTGCTAA,-0.159
4,CCATTTGA,-0.0459
5,ACCCTCCC,0.211
6,AATCTTGT,0.168
7,GTCGCAGA,0.0238
8,AAATGTAG,0.101
9,TACAATCA,0.152
10,ATTCGTAC,0.194
11,AAGAGATA,0.0515
12,ACAGCTCC,-0.0268
13,GATGTTCC,0.0101
14,GCTGCCCA,-0.122
15,AGCGTTGG,-0.066
16,AAGATGGA,0.109
17,GCTAATCA,0.212
18,ATTCGCTC,0.141
19,CGAAGTCA,-0.0586
20,GCGCTGGA,-0.129
21,TATTGCCA,0.142
22,GAGCACTA,-0.108
23,ATCGCAAA,0.112
24,TATATGAA,0.129
25,GAGGTATA,0.177

row,Sequence,PBM E-score
1,ACGATGCA,-0.0364
2,ATAGTAGA,0.139
3,ACTGTTGA,-0.0374
4,AGTATCTG,-0.139
5,AGTACTAA,0.186
6,AAGTTCCT,-0.0434
7,AGTCCGTC,-0.0718
8,AAGACACG,0.0495
9,AGATTCCA,0.177
10,ATGTTCAA,-0.00599
11,CGTGGTTA,-0.0732
12,CGAAAGCC,-0.293
13,CCGCCTTA,-0.1
14,ACAATGCA,0.134
15,CAGGTTGG,0.0152
16,CCGCACGG,-0.0998
17,ATACCGAA,-0.00536
18,ATTCTATG,0.113
19,AGGATATG,0.174
20,TGAACAAA,0.217
21,ATACGGGC,-0.128
22,CAGTCTGG,-0.276
23,CAACTCAC,0.0244
24,GCAGAATA,0.0866
25,ACGAGCCC,-0.0676

row,Sequence,PBM E-score
1,CATCCAAG,-0.0392
2,GCTAGTTA,0.132
3,AAGGGTAG,-0.142
4,CCTTCAAG,-0.126
5,AGCACGAT,0.0861
6,AGCGCGGA,0.0803
7,CTTTGCCC,-0.199
8,ACGCACTA,0.0242
9,AGACCCCC,-0.45
10,ATCTATTA,0.321
11,ATGTATGG,0.0201
12,CCCCTGAA,0.00838
13,AGGTCGAC,0.102
14,AGGCGGCC,-0.201
15,AGACCACC,-0.123
16,ACTTGCAC,0.115
17,AAGTTCAT,0.111
18,CACGTTGC,-0.209
19,AGGGAGTA,-0.0437
20,GGACCCCC,-0.463
21,GAGCGCGC,0.109
22,AAACGTAT,0.167
23,AAATGTGG,0.16
24,GCGCAAAA,0.105
25,ACTGGCAA,-0.0416

row,Sequence,PBM E-score
1,ACCGTAAA,0.0629
2,GGCCAGAC,-0.24
3,GCGGTTGA,0.0621
4,GGATTAAA,0.163
5,ATTTAGTA,0.303
6,ATGGGGCG,0.102
7,TCTGGCCA,-0.0187
8,ATCGACGC,0.108
9,GCGATACC,-0.132
10,AGAACTGA,0.024
11,CCTTAGCA,-0.0346
12,ACACTCCT,-0.0471
13,AATGATAA,0.227
14,AATTCCAC,0.213
15,TATACGAA,0.171
16,GGCCAACC,-0.186
17,TCAATTGA,0.123
18,GCAAGAAC,0.0698
19,CCAGCGCG,-0.0927
